Assay results

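A panel of P. falciparum strains inside erythrocytes is exposed to compounds for three days, then a DNA-binding dye reports the amount of parasite DNA. Each compound was titrated across a series from about 0.000037 to 29 µM. The number is the fitted AC50, the concentration giving a half-maximal change in signal; a lower value means higher potency, whether the curve shows a decrease or an increase. Calls follow the curve class and fit quality: every row here is inconclusive, covering signal-raising curves and weak, poorly fitted, partial or highest-dose-only inhibition curves.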

Values are in µM. Every entry below has the call inconclusive. These entries are mostly ones the record files as inconclusive; other results of the assay are not listed here. A potency from a partial, single-point or poor curve is only a rough figure.

SMILES | condition | potency (µM) | curve as filed
O=C(N/N=C/c1ccccc1O)c1ccncc1 | CP266 | 19.01 | inhibitor, single point
O=C(N/N=C/c1ccccc1O)c1ccncc1 | DIV14 | 13.46 | inhibitor, single point
OCCN1CCN(CC/C=C2/c3ccccc3Sc3ccc(C(F)(F)F)cc32)CC1 | DIV14 | 12 | inhibitor, partial curve, poor fit
OCCN1CCN(CC/C=C2/c3ccccc3Sc3ccc(C(F)(F)F)cc32)CC1 | FAB9 | 14.13 | inhibitor, single point
OCCN1CCN(CC/C=C2/c3ccccc3Sc3ccc(C(F)(F)F)cc32)CC1 | CP266 | 12 | inhibitor, partial curve
OCCN1CCN(CC/C=C2/c3ccccc3Sc3ccc(C(F)(F)F)cc32)CC1 | CP265 | 12.59 | inhibitor, partial curve, poor fit
OCCN1CCN(CC/C=C2/c3ccccc3Sc3ccc(C(F)(F)F)cc32)CC1 | DFO2036 | 10 | inhibitor, partial curve, poor fit
OCCN1CCN(CC/C=C2/c3ccccc3Sc3ccc(C(F)(F)F)cc32)CC1 | PC49 | 6.31 | inhibitor, partial curve
OCCN1CCN(CC/C=C2/c3ccccc3Sc3ccc(C(F)(F)F)cc32)CC1 | CP217 | 12.59 | inhibitor, single point
OCCN1CCN(CC/C=C2/c3ccccc3Sc3ccc(C(F)(F)F)cc32)CC1 | C2A | 10 | inhibitor, single point
OCCN1CCN(CC/C=C2/c3ccccc3Sc3ccc(C(F)(F)F)cc32)CC1 | CP315 | 9.528 | inhibitor, partial curve, poor fit
CCOc1cc(N)c(Cl)cc1C(=O)NCC1CN(Cc2ccc(F)cc2)CCO1 (centres unmarked) | CP203 | 15.1 | inhibitor, single point
CCOc1cc(N)c(Cl)cc1C(=O)NCC1CN(Cc2ccc(F)cc2)CCO1 (centres unmarked) | DIV17 | 19.01 | inhibitor, single point
CCOc1cc(N)c(Cl)cc1C(=O)NCC1CN(Cc2ccc(F)cc2)CCO1 (centres unmarked) | CP325 | 16.94 | inhibitor, single point
CCOc1cc(N)c(Cl)cc1C(=O)NCC1CN(Cc2ccc(F)cc2)CCO1 (centres unmarked) | PC49 | 12.59 | inhibitor, single point
CCOc1cc(N)c(Cl)cc1C(=O)NCC1CN(Cc2ccc(F)cc2)CCO1 (centres unmarked) | JCK | 11.22 | inhibitor, single point
CCOc1cc(N)c(Cl)cc1C(=O)NCC1CN(Cc2ccc(F)cc2)CCO1 (centres unmarked) | FAB9 | 10 | inhibitor, partial curve, poor fit
CCOc1cc(N)c(Cl)cc1C(=O)NCC1CN(Cc2ccc(F)cc2)CCO1 (centres unmarked) | CP315 | 10.69 | inhibitor, partial curve
CCOc1cc(N)c(Cl)cc1C(=O)NCC1CN(Cc2ccc(F)cc2)CCO1 (centres unmarked) | CP297 | 19.01 | inhibitor, single point
CCOc1cc(N)c(Cl)cc1C(=O)NCC1CN(Cc2ccc(F)cc2)CCO1 (centres unmarked) | PC15 | 10 | inhibitor, single point
CCOc1cc(N)c(Cl)cc1C(=O)NCC1CN(Cc2ccc(F)cc2)CCO1 (centres unmarked) | CP201 | 8.492 | inhibitor, partial curve
CCOc1cc(N)c(Cl)cc1C(=O)NCC1CN(Cc2ccc(F)cc2)CCO1 (centres unmarked) | PC26 | 7.569 | inhibitor, partial curve
CCOc1cc(N)c(Cl)cc1C(=O)NCC1CN(Cc2ccc(F)cc2)CCO1 (centres unmarked) | DIV14 | 0.9528 | inhibitor, partial curve, poor fit
CCOc1cc(N)c(Cl)cc1C(=O)NCC1CN(Cc2ccc(F)cc2)CCO1 (centres unmarked) | DFO2036 | 12.59 | inhibitor, partial curve, poor fit
CCOc1cc(N)c(Cl)cc1C(=O)NCC1CN(Cc2ccc(F)cc2)CCO1 (centres unmarked) | CP266 | 12 | inhibitor, single point
CCOc1cc(N)c(Cl)cc1C(=O)NCC1CN(Cc2ccc(F)cc2)CCO1 (centres unmarked) | CP192 | 12 | inhibitor, single point
CCOc1cc(N)c(Cl)cc1C(=O)NCC1CN(Cc2ccc(F)cc2)CCO1 (centres unmarked) | DIV30 | 7.569 | inhibitor, partial curve
CCOc1cc(N)c(Cl)cc1C(=O)NCC1CN(Cc2ccc(F)cc2)CCO1 (centres unmarked) | Dd2 | 11.22 | inhibitor, single point
CCOc1cc(N)c(Cl)cc1C(=O)NCC1CN(Cc2ccc(F)cc2)CCO1 (centres unmarked) | CP268 | 15.1 | inhibitor, partial curve
CCOc1cc(N)c(Cl)cc1C(=O)NCC1CN(Cc2ccc(F)cc2)CCO1 (centres unmarked) | N140 | 8.912 | inhibitor, single point
CO/N=C(/C(=O)N[C@@H]1C(=O)N2C(C(=O)O)=C(COC(N)=O)CS[C@H]12)c1ccco1 | DIV17 | 19.01 | inhibitor, single point
CO/N=C(/C(=O)N[C@@H]1C(=O)N2C(C(=O)O)=C(COC(N)=O)CS[C@H]12)c1ccco1 | CP297 | 0.0021 | inhibitor, full curve, poor fit
CO/N=C(/C(=O)N[C@@H]1C(=O)N2C(C(=O)O)=C(COC(N)=O)CS[C@H]12)c1ccco1 | P93_24 | 11.22 | inhibitor, partial curve
CO/N=C(/C(=O)N[C@@H]1C(=O)N2C(C(=O)O)=C(COC(N)=O)CS[C@H]12)c1ccco1 | GB4 | 19.01 | inhibitor, single point
CO/N=C(/C(=O)N[C@@H]1C(=O)N2C(C(=O)O)=C(COC(N)=O)CS[C@H]12)c1ccco1 | W2 | 15.1 | inhibitor, single point
CO/N=C(/C(=O)N[C@@H]1C(=O)N2C(C(=O)O)=C(COC(N)=O)CS[C@H]12)c1ccco1 | HB3 | 12.59 | inhibitor, single point
CO/N=C(/C(=O)N[C@@H]1C(=O)N2C(C(=O)O)=C(COC(N)=O)CS[C@H]12)c1ccco1 | 7G8 | 10 | inhibitor, single point
C=C1CC2C3C=C(C)C4=CC(=O)CCC4(C)C3CCC2(C)[C@@]1(OC(C)=O)C(C)=O (some centres unmarked) | PAD | 11.22 | inhibitor, single point
C=C1CC2C3C=C(C)C4=CC(=O)CCC4(C)C3CCC2(C)[C@@]1(OC(C)=O)C(C)=O (some centres unmarked) | TAB165 | 12.59 | inhibitor, single point
C=C1CC2C3C=C(C)C4=CC(=O)CCC4(C)C3CCC2(C)[C@@]1(OC(C)=O)C(C)=O (some centres unmarked) | 3D7 | 14.13 | inhibitor, single point
C=C1CC2C3C=C(C)C4=CC(=O)CCC4(C)C3CCC2(C)[C@@]1(OC(C)=O)C(C)=O (some centres unmarked) | CP191 | 11.22 | inhibitor, single point
C=C1CC2C3C=C(C)C4=CC(=O)CCC4(C)C3CCC2(C)[C@@]1(OC(C)=O)C(C)=O (some centres unmarked) | HB3 | 12.59 | inhibitor, single point
C=C1CC2C3C=C(C)C4=CC(=O)CCC4(C)C3CCC2(C)[C@@]1(OC(C)=O)C(C)=O (some centres unmarked) | CP269 | 19.01 | inhibitor, single point

The first 4 entries again:

Result for O=C(N/N=C/c1ccccc1O)c1ccncc1 [CP266] was potency 19.01 µM (inhibitor, single point).
Result for O=C(N/N=C/c1ccccc1O)c1ccncc1 [DIV14] was potency 13.46 µM (inhibitor, single point).
Result for OCCN1CCN(CC/C=C2/c3ccccc3Sc3ccc(C(F)(F)F)cc32)CC1 [DIV14] was potency 12 µM (inhibitor, partial curve, poor fit).
Result for OCCN1CCN(CC/C=C2/c3ccccc3Sc3ccc(C(F)(F)F)cc32)CC1 [FAB9] was potency 14.13 µM (inhibitor, single point).

From PubChem BioAssay record AID504749 (NCATS, 2011).